US20200317791A1
These are yes or no findings as the source states them, for the method shown. For some of these results: Binding calls can cover weak binding; strength is not graded here.

Assays:
Cw4_C*04:01 (human) = experiment: LABScreen beads, 10 µg/ml antibody
Cw10_C*03:02 (human) = experiment: LABScreen beads, 10 µg/ml antibody
Cw9_C*03:03 (human) = experiment: LABScreen beads, 10 µg/ml antibody
Cw15_C*15:02 (human) = experiment: LABScreen beads, 10 µg/ml antibody
Cw10_C*03:04 (human) = experiment: LABScreen beads, 10 µg/ml antibody
[1] = target: Cw7_C*07:02 (human), C*07:0; experiment: LABScreen beads, 10 µg/ml antibody
Cw8_C*08:01 (human) = experiment: LABScreen beads, 10 µg/ml antibody
Cw18_C*18:02 (human) = experiment: LABScreen beads, 10 µg/ml antibody
Cw14_C*14:02 (human) = experiment: LABScreen beads, 10 µg/ml antibody
Cw5_C*05:01 (human) = experiment: LABScreen beads, 10 µg/ml antibody
Cw2_C*02:02 (human) = experiment: LABScreen beads, 10 µg/ml antibody
Cw16_C*16:01 (human) = experiment: LABScreen beads, 10 µg/ml antibody
Cw12_C*12:03 (human) = experiment: LABScreen beads, 10 µg/ml antibody
[2] = target: Cw6_C*06:02 (human), C*06:0; experiment: LABScreen beads, 10 µg/ml antibody
Cw1_C*01:02 (human) = experiment: LABScreen beads, 10 µg/ml antibody
Cw17_C*17:01 (human) = experiment: LABScreen beads, 10 µg/ml antibody
B55,Bw6_B*55:01 (human) = experiment: LABScreen beads
B48,Bw6_B*48:01 (human) = experiment: LABScreen beads
B45,Bw6_B*45:01 (human) = experiment: LABScreen beads
B41,Bw6_B*41:01 (human) = experiment: LABScreen beads
B82,Bw6_B*82:01 (human) = experiment: LABScreen beads
B63,Bw4_B*15:16 (human) = experiment: LABScreen beads
B78,Bw6_B*78:01 (human) = experiment: LABScreen beads
B61,Bw6_B*40:06 (human) = experiment: LABScreen beads
B52,Bw4_B*52:01 (human) = experiment: LABScreen beads
B57,Bw4_B*57:01 (human) = experiment: LABScreen beads
B75,Bw6_B*15:02 (human) = experiment: LABScreen beads
B51,Bw4_B*51:01 (human) = experiment: LABScreen beads
[3] = target: B7,Bw6_B*07:02 (human), B*07:0; experiment: LABScreen beads
B61,Bw6_B*40:02 (human) = experiment: LABScreen beads
B49,Bw4_B*49:01 (human) = experiment: LABScreen beads
B76,Bw6_B*15:12 (human) = experiment: LABScreen beads
B42,Bw6_B*42:01 (human) = experiment: LABScreen beads
[4] = target: B27,Bw4_B*27:05 (human), B*27:0; experiment: LABScreen beads
B53,Bw4_B*53:01 (human) = experiment: LABScreen beads
B51,Bw4_B*51:02 (human) = experiment: LABScreen beads
B56,Bw6_B*56:01 (human) = experiment: LABScreen beads
B50,Bw6_B*50:01 (human) = experiment: LABScreen beads
B13,Bw4_B*13:02 (human) = experiment: LABScreen beads
B57,Bw4_B*57:03 (human) = experiment: LABScreen beads
B8,Bw6_B*08:01 (human) = experiment: LABScreen beads
B67,Bw6_B*67:01 (human) = experiment: LABScreen beads
B54,Bw6_B*54:01 (human) = experiment: LABScreen beads
B18,Bw6_B*18:01 (human) = experiment: LABScreen beads
B71,Bw6_B*15:10 (human) = experiment: LABScreen beads
B47,Bw4_B*47:01 (human) = experiment: LABScreen beads
B65,Bw6_B*14:02 (human) = experiment: LABScreen beads
B60,Bw6_B*40:01 (human) = experiment: LABScreen beads
B64,Bw6_B*14:01 (human) = experiment: LABScreen beads
B13,Bw4_B*13:01 (human) = experiment: LABScreen beads
B62,Bw6_B*15:01 (human) = experiment: LABScreen beads
B44,Bw4_B*44:03 (human) = experiment: LABScreen beads
B81,Bw6_B*81:01 (human) = experiment: LABScreen beads
B27,Bw6_B*27:08 (human) = experiment: LABScreen beads
B44,Bw4_B*44:02 (human) = experiment: LABScreen beads
B77,Bw4_B*15:13 (human) = experiment: LABScreen beads
B72,Bw6_B*15:03 (human) = experiment: LABScreen beads
B58,Bw4_B*58:01 (human) = experiment: LABScreen beads
B75,Bw6_B*15:11 (human) = experiment: LABScreen beads
B39,Bw6_B*39:01 (human) = experiment: LABScreen beads
B37,Bw4_B*37:01 (human) = experiment: LABScreen beads
B59,Bw4_B*59:01 (human) = experiment: LABScreen beads
B35,Bw6_B*35:01 (human) = experiment: LABScreen beads
B38,Bw4_B*38:01 (human) = experiment: LABScreen beads

B1: CW6B130 (antibody, V domains shown)
VH: QLQLQESGPGLVKPSETLSLTCTVSGASISSINYYWGWIRQPPGKGLEWIGSFYYSGNTYYNPSLKSRVTISVDTSKNYFSLKLNSVTAADTAVYYCAREYYDSSGYYPFEPWGQGTLVTVSS
VL: SYVLTQPPSVSVAPGQTARITCGGDNIGSESVHWYQQKPGQAPVLVVYDDTDRPSGIPERFSGSKSGTTATLTISWVEAGDEADYYCQVWDSSSDHVVFGGGTKLTVL
binding (Cw4_C*04:01 (human)): binds | binding (Cw10_C*03:02 (human)): binds | binding (Cw9_C*03:03 (human)): binds | binding (Cw15_C*15:02 (human)): binds | binding (Cw10_C*03:04 (human)): binds | binding [1]: binds | binding (Cw8_C*08:01 (human)): binds | binding (Cw18_C*18:02 (human)): binds | binding (Cw14_C*14:02 (human)): binds | binding (Cw5_C*05:01 (human)): binds | binding (Cw2_C*02:02 (human)): binds | binding (Cw16_C*16:01 (human)): binds | binding (Cw12_C*12:03 (human)): binds | binding [2]: binds | binding (Cw1_C*01:02 (human)): binds | binding (Cw17_C*17:01 (human)): binds | binding (B55,Bw6_B*55:01 (human)): no binding (tested: 10 µg/ml) | binding (B48,Bw6_B*48:01 (human)): no binding (tested: 10 µg/ml) | binding (B45,Bw6_B*45:01 (human)): no binding (tested: 10 µg/ml) | binding (B41,Bw6_B*41:01 (human)): no binding (tested: 10 µg/ml) | binding (B82,Bw6_B*82:01 (human)): no binding (tested: 10 µg/ml) | binding (B63,Bw4_B*15:16 (human)): no binding (tested: 10 µg/ml) | binding (B78,Bw6_B*78:01 (human)): no binding (tested: 10 µg/ml) | binding (B61,Bw6_B*40:06 (human)): no binding (tested: 10 µg/ml) | binding (B52,Bw4_B*52:01 (human)): no binding (tested: 10 µg/ml) | binding (B57,Bw4_B*57:01 (human)): no binding (tested: 10 µg/ml) | binding (B75,Bw6_B*15:02 (human)): no binding (tested: 10 µg/ml) | binding (B51,Bw4_B*51:01 (human)): no binding (tested: 10 µg/ml) | binding [3]: no binding (tested: 10 µg/ml) | binding (B61,Bw6_B*40:02 (human)): no binding (tested: 10 µg/ml) | binding (B49,Bw4_B*49:01 (human)): no binding (tested: 10 µg/ml) | binding (B76,Bw6_B*15:12 (human)): no binding (tested: 10 µg/ml) | binding (B42,Bw6_B*42:01 (human)): no binding (tested: 10 µg/ml) | binding [4]: no binding (tested: 10 µg/ml) | binding (B53,Bw4_B*53:01 (human)): no binding (tested: 10 µg/ml) | binding (B51,Bw4_B*51:02 (human)): no binding (tested: 10 µg/ml) | binding (B56,Bw6_B*56:01 (human)): no binding (tested: 10 µg/ml) | binding (B50,Bw6_B*50:01 (human)): no binding (tested: 10 µg/ml) | binding (B13,Bw4_B*13:02 (human)): no binding (tested: 10 µg/ml) | binding (B57,Bw4_B*57:03 (human)): no binding (tested: 10 µg/ml) | binding (B8,Bw6_B*08:01 (human)): no binding (tested: 10 µg/ml) | binding (B67,Bw6_B*67:01 (human)): no binding (tested: 10 µg/ml) | binding (B54,Bw6_B*54:01 (human)): no binding (tested: 10 µg/ml) | binding (B18,Bw6_B*18:01 (human)): no binding (tested: 10 µg/ml) | binding (B71,Bw6_B*15:10 (human)): no binding (tested: 10 µg/ml) | binding (B47,Bw4_B*47:01 (human)): no binding (tested: 10 µg/ml) | binding (B65,Bw6_B*14:02 (human)): no binding (tested: 10 µg/ml) | binding (B60,Bw6_B*40:01 (human)): no binding (tested: 10 µg/ml) | binding (B64,Bw6_B*14:01 (human)): no binding (tested: 10 µg/ml) | binding (B13,Bw4_B*13:01 (human)): no binding (tested: 10 µg/ml) | binding (B62,Bw6_B*15:01 (human)): no binding (tested: 10 µg/ml) | binding (B44,Bw4_B*44:03 (human)): no binding (tested: 10 µg/ml) | binding (B81,Bw6_B*81:01 (human)): no binding (tested: 10 µg/ml) | binding (B27,Bw6_B*27:08 (human)): no binding (tested: 10 µg/ml) | binding (B44,Bw4_B*44:02 (human)): no binding (tested: 10 µg/ml) | binding (B77,Bw4_B*15:13 (human)): no binding (tested: 10 µg/ml) | binding (B72,Bw6_B*15:03 (human)): no binding (tested: 10 µg/ml) | binding (B58,Bw4_B*58:01 (human)): no binding (tested: 10 µg/ml) | binding (B75,Bw6_B*15:11 (human)): no binding (tested: 10 µg/ml) | binding (B39,Bw6_B*39:01 (human)): no binding (tested: 10 µg/ml) | binding (B37,Bw4_B*37:01 (human)): no binding (tested: 10 µg/ml) | binding (B59,Bw4_B*59:01 (human)): no binding (tested: 10 µg/ml) | binding (B35,Bw6_B*35:01 (human)): no binding (tested: 10 µg/ml) | binding (B38,Bw4_B*38:01 (human)): no binding (tested: 10 µg/ml)
